For experiment [1], the target named is T1, SP (Aβ25-35 with amide form of the C-terminal methionine), thiolated, conjugated as SP-PEG3400-DSPE and shown on liposomes (SP-sLip) or PLGA nanoparticles (SP-PLGA NP).
T1 sequence (peptide, C-terminal amide (CONH2); N-terminal cysteine conjugated with mal-PEG3400-DSPE): CGSNKGAIIGLM
The experiment is described as follows: radioligand binding; same experiment as a7, read for the absorption of ApoE from human plasma on SP-sLip (shown only through the I-125 rhLRP1 then bound); only the target purified.

Protein sequences, listed by entry. Tags and fused reporters are not part of them. Residues count along the entry.
UniProt P02649, residues 19-317: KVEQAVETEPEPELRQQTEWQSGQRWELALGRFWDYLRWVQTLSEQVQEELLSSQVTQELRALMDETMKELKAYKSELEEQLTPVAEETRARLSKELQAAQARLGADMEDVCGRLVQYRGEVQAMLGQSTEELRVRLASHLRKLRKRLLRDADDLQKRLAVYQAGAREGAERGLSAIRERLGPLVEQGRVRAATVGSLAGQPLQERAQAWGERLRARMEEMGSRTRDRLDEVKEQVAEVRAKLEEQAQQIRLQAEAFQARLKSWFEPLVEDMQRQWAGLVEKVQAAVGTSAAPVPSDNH

Substrate in experiment [2]: T2, SP (Aβ25-35 with amide form of the C-terminal methionine), thiolated, conjugated as SP-PEG3400-DSPE and shown on liposomes (SP-sLip) or PLGA nanoparticles (SP-PLGA NP)
T2 sequence (peptide, C-terminal amide (CONH2); N-terminal cysteine conjugated with mal-PEG3400-DSPE): CGSNKGAIIGLM
Kind of experiment: co-sedimentation; SP-sLip (100 μL, 10 mg/mL) in PBS with 100 μL mouse plasma at 37 °C for 1 h (or different periods); corona isolated at 14k RCF, three washes with cold PBS, SDS-PAGE, silver stain; bands identified by nano-LC-MS/MS; plain sLip as control; only the target purified.

Substrate in experiment [3]: T2, 
Kind of experiment: co-sedimentation; in vivo: DiI-labeled SP-sLip injected into the tail vein of BALB/c mice, blood sampled at 1 h, corona isolated by centrifugation at 14k RCF, Western blotting for ApoJ, ApoE, ApoA1; plain sLip as control; only the target purified. (In general: A western blot detects proteins with antibodies after separation by electrophoresis.)

This passage reports binding results from PMC6687821, “Brain-targeted drug delivery by manipulating protein corona functions” (Nature Communications, 2019).

Results are given in words; binding and its absence hold for the method and conditions named. For part of these data: Binding seen in cells or lysates may run through a third protein. Some entries that bind do so weakly or less than the wild type.

As for “human plasma ApoE (from UniProt P02649 19-317)”, in experiment [1], the binding result is reported as “binds”.

B1: mouse plasma ApoE (protein, UniProt P08226 19-311)
chain: EGEPEVTDQLEWQSNQPWEQALNRFWDYLRWVQTLSDQVQEELQSSQVTQELTALMEDTMTEVKAYKKELEEQLGPVAEETRARLGKEVQAAQARLGADMEDLRNRLGQYRNEVHTMLGQSTEEIRARLSTHLRKMRKRLMRDAEDLQKRLAVYKAGAREGAERGVSAIRERLGPLVEQGRQRTANLGAGAAQPLRDRAQAFGDRIRGRLEEVGNQARDRLEEVREHMEEVRSKMEEQTQQIRLQAEIFQARLKGWFEPIVEDMHRQWANLMEKIQASVATNPIITPVAQENQ
Turning to B1, the binding result in experiment [2] and in experiment [3] was “binds” each time.
